The AC50 is the concentration giving half of the maximal activity seen.

Molecules are shown by their SMILES. Several values for one entry are separate records, joined by “and”; a condition that tells them apart may be missing. Equal values may be shown once. The list shows a part of the results. The main result of the screen is listed elsewhere. These columns were measured beside it and carry no call. The list favours compounds with an active or inconclusive main result. Words in brackets tell the shape of the fitted curve; partial curves, single points and poor fits give uncertain potencies.

These results are taken from PubChem BioAssay AID1487 (National Center for Advancing Translational Sciences (NCATS), 2009).

This assay is described as follows: qHTS Assay for Modulators of Lamin A Splicing. To be noted: HeLa LMNA splicing GFP/RFP minigene ratio, 48 h. The procedure, abridged: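 S3 HeLa cells stably expressing lamin A-EGFP splicing minigene plus DsRed2, 600 cells/well, 48 h compound exposure at 37C. Laser-scanning cytometry; analysed as GFP (500-530 nm)/RFP (575-640 nm) total intensity ratio; 0.5% DMSO vehicle.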
In general terms: qHTS replaces the single test concentration by a dilution series.

The mark [1] stands for this setting: measured here: RFP viability control channel.
Setting [2] is: measured here: GFP splicing reporter channel.

`CC(C)CC(=O)N1CCN(Cc2ccccc2[N+](=O)[O-])CC1`: the AC50 under setting [1] was 0.0501 µM [falling, full curve]. Consider `COc1ccc(-n2cc(-c3ccccc3)c3c(NC4CCCC4)ncnc32)cc1`, for which the half-maximal activity concentration (AC50) under setting [2] is 22.4 µM [falling, single point] and the AC50 under setting [1] was 35.5 µM [falling, single point]. Take `CCOC(=O)c1c(NC(=O)CSc2nnc(N)s2)sc(C)c1-c1ccc(C)cc1`: the AC50 runs as follows: under setting [2], 10 µM [rising, partial curve]; under setting [1], 10 µM [rising, partial curve]. `COc1ccc(CNc2ccccc2SC)cc1OC`: the AC50 reads like this: under setting [2], 20 µM [rising, single point]; under setting [1], 31.6 µM [rising, single point].

For `Cc1cc(/C([O-])=C(/C(=S)Nc2ccc(F)cc2)[n+]2ccccc2)c(C)n1-c1ccc(F)cc1`, under setting [2], the AC50 was 14.1 µM [rising, single point]. Regarding `CCCCNC(=O)c1onc(CSc2cccc(OC)c2)c1C(=O)O`, the AC50 by setting is: under setting [2], 22.4 µM [rising, single point]; under setting [1], 20 µM [rising, single point]. As for `CCN(CC)c1ccc(C(=O)OCC(=O)Nc2sccc2C#N)cc1`, under setting [1], the AC50 is 25.1 µM [rising, partial curve, poor fit]. Take `O=C(Nc1nc(-c2ccccc2)ns1)c1cccs1`: the AC50 under setting [1] is 22.4 µM [rising, single point]. `C=C(C)C1CC=C(C)CC1` (stereo unspecified): the concentration at half-maximal activity (AC50) runs as follows: under setting [2], 0.0562 µM [falling, partial curve]; under setting [1], 0.794 µM [falling, partial curve, poor fit]. `CCCCn1c(SCC2CCCCO2)nc2cc(S(N)(=O)=O)ccc21` (stereo unspecified): the AC50 under setting [1] was 35.5 µM [rising, single point]. As for `COc1ccc2[nH]cc(CCNc3ncnc4ccc(-c5cccc(C#N)c5)cc34)c2c1`, the AC50 is, setting by setting: under setting [2], 7.08 µM [falling, partial curve]; under setting [1], 15.8 µM [falling, single point]. `Cc1ccc(Cl)cc1N1CCN(C(=O)C2CCCN(S(=O)(=O)c3cnc[nH]3)C2)CC1` (stereo unspecified): the half-maximal activity concentration (AC50) under setting [1] was 12.6 µM [rising, single point].

Regarding `CN(C)CCOC(c1ccccc1)c1ccccc1` (tested in a mixture with another compound), the AC50 under setting [2] is 1.12 nM [falling, full curve] and 2.24 µM [rising, partial curve]; the AC50 under setting [1] was 0.001 µM [falling, full curve]. Turning to `O=C(/C=C/c1ccc([N+](=O)[O-])cc1)Nc1ncc([N+](=O)[O-])s1`, under setting [1], the AC50 is 3.98 µM [rising, full curve]. Take `COc1ccc(OC)c(CNC(=O)c2cnc3c(C)cccn3c2=O)c1`: the AC50 under setting [2] was 11.2 µM [rising, single point]. As to `CCN(CC)S(=O)(=O)c1cccc(-c2nnc(SCc3nc4ccccc4s3)o2)c1`, the AC50 is, setting by setting: under setting [2], 11.2 µM [rising, partial curve]; under setting [1], 15.8 µM [rising, single point]. Consider `Cc1ccc(-c2nnc(N3CCN(C(=O)Cn4c(=O)n(C)c5ccccc54)CC3)c3ccccc23)cc1`, for which the AC50 under setting [1] was 25.1 µM [rising, single point]. `CCCCN(CCCNC(=O)CN1N=C(c2ccc(C)cc2)CCC1=O)c1ccccc1`: the AC50 under setting [2] was 12.6 µM [falling, partial curve].

For the compound `Cc1csc(NC(=S)Nc2cccc(Cl)c2)n1`, the concentration at half-maximal activity (AC50) under setting [1] was 12.6 µM [rising, partial curve, poor fit]. With `Cc1ccc(NC2=C/C(=N/S(=O)(=O)c3cccs3)c3ccccc3C2=O)cc1`, the AC50 by setting is: under setting [2], 3.98 µM [falling, full curve]; under setting [1], 3.16 µM [falling, full curve]. Turning to `O=C(CCCc1cccs1)Nc1nc(-c2ccc(F)cc2)cs1`, under setting [1], the concentration at half-maximal activity (AC50) is 35.5 µM [rising, single point]. As to `Clc1ccc(CSc2snnc2-c2ccccc2)cc1`, the AC50 under setting [1] is 35.5 µM [rising, single point]. For `O=C(Nc1ccccc1F)c1ccc(S(=O)(=O)NCC2CCCO2)cc1` (stereo unspecified), the AC50 runs as follows: under setting [2], 35.5 µM [rising, single point]; under setting [1], 31.6 µM [rising, single point]. Regarding `Oc1ccc(/C(Cc2ccccn2)=N\Nc2ccccc2)c(O)c1`, the concentration at half-maximal activity (AC50) under setting [1] was 31.6 µM [rising, single point].

In the case of `O=S1(=O)C=C(Oc2ccc3ccccc3c2)c2ccccc21`, the AC50 under setting [2] was 0.2 µM [falling, single point]. Consider `Cn1c(=O)n(C)c2cc(/C=C(/C#N)C(=O)NCc3ccco3)ccc21`, for which the AC50 under setting [1] was 14.1 µM [rising, single point].

Take `COc1cc(C(=O)O/N=C(\N)Cc2ccc([N+](=O)[O-])cc2)cc(OC)c1OC`: the AC50 under setting [2] was 11.2 µM [rising, partial curve]. As to `Cc1cc(=O)oc2cc(OC(=O)CCN3C(=O)c4ccccc4C3=O)ccc12`, under setting [1], the AC50 is 0.00501 µM [falling, full curve, poor fit]. For `Cc1ccc(S(=O)(=O)N(CC(=O)N=Nc2c(O)[nH]c3ccccc23)c2ccc(C)c(C)c2)cc1`, the AC50 reads like this: under setting [2], 7.08 µM [rising, full curve]; under setting [1], 14.1 µM [rising, partial curve]. Take `Cc1cc(=O)n2[nH]c(N)c(N=Nc3ccccc3F)c2n1`: the AC50 under setting [1] was 10 µM [rising, partial curve].

As to `O=S(=O)(Cc1ccccc1)c1cnc2ccccc2n1`, the AC50 under setting [2] is 35.5 µM [falling, single point].

With `CC(C)(C)c1ccc(C(=O)NC(=S)NCc2cccnc2)cc1`, the AC50 by setting is: under setting [2], 12.6 µM [rising, single point]; under setting [1], 15.8 µM [rising, partial curve]. Take `Clc1ccc([C@H](Cn2ccnc2)OCc2c(Cl)cccc2Cl)c(Cl)c1`: the half-maximal activity concentration (AC50) under setting [2] is 0.251 µM [falling, partial curve, poor fit] and the AC50 under setting [1] is 12.6 µM [falling, single point]. Consider `Cc1cc(N2CCN(S(=O)(=O)c3ccc(Cl)cc3)CC2)c2ccccc2n1`, for which the AC50 was 7.08 µM [rising, partial curve, poor fit] under setting [2] and 11.2 µM [rising, single point] under setting [1]. For the compound `COC(=O)C/C=C/[C@@H](C)[C@@H](/C=N/OC[C@@H](C)[C@H](OCc1ccccc1)C(C)C)NS(=O)(=O)c1ccc(C)cc1`, the concentration at half-maximal activity (AC50) by setting is: under setting [2], 10 µM [rising, partial curve]; under setting [1], 22.4 µM [rising, partial curve, poor fit]. For the compound `Cn1nc([N+](=O)[O-])nc1Oc1ccccc1N`, the AC50 under setting [1] is 12.6 µM [falling, partial curve].

On to `CSc1ccc(/C=N/NC(=O)c2ccccc2Cl)cc1`, for which the AC50 under setting [1] is 11.2 µM [rising, single point].

For `CCOC(=O)c1ccc(NC(=O)Cn2nnc(-c3ccccc3F)n2)cc1`, the AC50 under setting [2] was 35.5 µM [rising, single point].

As to `COc1ccc(Nc2nc(-c3cccs3)nc3ccccc23)c(OC)c1`, the AC50 is, setting by setting: under setting [2], 25.1 µM [rising, single point]; under setting [1], 25.1 µM [rising, partial curve]. Turning to `Fc1ccc(Nc2nc(-c3ccncc3)cs2)cc1`, the concentration at half-maximal activity (AC50) under setting [2] was 25.1 µM [falling, single point]. Turning to `COc1cc(OC)c(-c2nn3c(-c4ccco4)nnc3s2)cc1OC`, the AC50 under setting [1] was 11.2 µM [rising, partial curve].

For the compound `CCN(CCCc1ccccc1)CCCc1ccccc1`, the half-maximal activity concentration (AC50) reads like this: under setting [2], 14.1 µM [falling, single point] and 447 nM [falling, full curve, poor fit]; under setting [1], 28.2 µM [falling, partial curve, poor fit]. Take `Cc1ccc2nc(NC(=O)CSc3nccn3-c3ccc(Cl)cc3)sc2c1`: under setting [1], the AC50 was 14.1 µM [falling, partial curve]. With `CCOC(=O)c1cc(-c2cccs2)nc2c1c(C)nn2-c1ccccn1`, the AC50 reads like this: under setting [2], 11.2 µM [falling, single point]; under setting [1], 12.6 µM [falling, single point]. `Cc1ccc2nc(/C(C#N)=C\c3cc(C)n(-c4cccc([N+](=O)[O-])c4)c3C)[nH]c2c1`: the AC50 under setting [1] is 14.1 µM [rising, single point]. With `Cc1cc(C(=O)N/N=C2\CC(=O)CC(C)(C)C2)c(C)n1-c1ccccc1`, the AC50 under setting [2] is 22.4 µM [rising, single point] and the AC50 under setting [1] is 35.5 µM [rising, single point].

As to `COc1ccc(/C=C/C(=O)c2c(C)nc3ccccn23)cc1`, the half-maximal activity concentration (AC50) is 11.2 µM [falling, partial curve] under setting [2] and 35.5 µM [falling, single point] under setting [1]. Turning to `COCCNC(=S)N/N=C(\C)c1ccc2cc(OC)ccc2c1`, the AC50 under setting [2] was 35.5 µM [rising, single point] and the AC50 under setting [1] is 31.6 µM [rising, single point].

Take `COc1ccc(C2c3c(n[nH]c3C)CC(C)(O)C2C(C)=O)cc1OC` (stereo unspecified): under setting [1], the AC50 was 0.01 µM [falling, full curve, poor fit]. As for `Cc1c(C)c2c(c(C)c1O)CC[C@@](C)(CCC[C@H](C)CCC[C@H](C)CCCC(C)C)O2`, under setting [1], the AC50 is 0.112 µM [rising, full curve, poor fit]. As to `CCOC(=O)N1CCN(Cc2cn[nH]c2-c2cccc3ccccc23)CC1`, the AC50 by setting is: under setting [2], 0.158 µM [rising, full curve, poor fit]; under setting [1], 0.316 µM [rising, full curve, poor fit]. For the compound `O=C(NCc1cccnc1)NC1(C(F)(F)F)Oc2ccccc2O1`, the concentration at half-maximal activity (AC50) under setting [1] was 15.8 µM [rising, single point]. On the same count and under the same terms, the same measure for `Cc1nc(C(=O)N(C)C)nn1-c1ccc([N+](=O)[O-])cc1`: 0.0224 µM [falling, full curve, poor fit]. For `CC(=O)N1CCCc2cc(S(=O)(=O)NC(C(=O)NC3CCCCC3)C(C)C)ccc21` (stereo unspecified), the AC50 under setting [2] is 22.4 µM [rising, single point].
